# Data reported in the supplement of paper PMC10338343.
# ± gives the standard deviation. Some of the results follow. Many entries were measured with a wide error.
# Test system: EfPiwi piRISC loaded with L1MC piRNA (26 nt)
# Test: pre-steady-state target cleavage rate (min^-1); guide: L1MC piRNA 5'p-UAACUAAAUACUAUGCAAGCUGUAGG; MIWI and MILI are mouse PIWI proteins and EfPiwi is from a freshwater sponge; tags in brackets are library labels; higher = faster piRNA-guided slicing of the target
# Settings: auxiliary factor: 500 nM Ephydatia muelleri Gtsf1
# Procedure, shortened: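 Three pooled Cleave-'n-Seq trials supplied the data, with k3 capped at 0.0001 min^-1. In each, […] transcribed, DNA-blocked target RNA library and 1 nM active affinity-purified piRISC with one synthetic guide reacted in HEPES–potassium acetate buffer at 33 °C for 0–8 or 0–960 min, with or without 500 nM GTSF1 partner protein. Uncleaved targets were sequenced and normalised to depth and to weakly complementary targets. A burst-and-steady-state fit provided the pre-steady-state cleavage rate.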
row,Sequence,pre-steady-state target cleavage rate
1,UCCUGGUACAGCUUGCAUAGUAGUUAGUUA,0.00515 ± 0.0021
2,UCCUGGAUGUGCUUGCAUAGUUUUUAGUAA,0.000532 ± 0.0093
3,UCCUCCUACACGAUGCAUAGUAUUUAGUUA,0.0593 ± 0.017
4,UCCUGCAACUGCUUGCAUAGUAUUUAGUUA,0.0198 ± 0.0044
5,UCCUGCUACAGCUUGCUUAGUAAUUAGUUA,0.0139 ± 0.0051
6,UCCUGGAUGAGCAUGCUUAGUAUUUAGUUA,0.00171 ± 0.0033
7,UCCUGCUACUGCUUGCAUAGUAUUUAGUUA,0.00883 ± 0.003
8,UCCUGGAUGUCUUUGCAUAGUAUUUAGUUA,0.00871 ± 0.0039
9,UCCUGGAACAGCUUACAUAGUAUUUAGUUA,0.0502 ± 0.012
10,UCCUGCUACAGCUUGCAUAGUAUUAAGUUA,0.0064 ± 0.0019
11,UCCUGGAUGUCGAACGUAAGUAUUUAGAAA,0.000201 ± 0.036
12,UCCUGGAUGUCGAACGUAUCUAGUUUAGUUA,< 0.0001
13,UCCUGGUACAGCGUGCAUAGUAUUUAGUUA,0.0121 ± 0.004
14,UCCUGGAUCUGCUUGCAAAGUAUUUAGUUA,0.0405 ± 0.011
15,UCCUCCUACAACUUGCAUAGUAUUUAGUUA,0.0806 ± 0.024
16,UCCUGGAUCAGAUUGCAUAGUAUUUAGUUA,0.0613 ± 0.011
17,UCCUGGAUGAGUUUGCAUAGUAUUUAGUUA,0.0219 ± 0.006

# Part of the list above, with bars between the fields:
row | Sequence | pre-steady-state target cleavage rate
9 | UCCUGGAACAGCUUACAUAGUAUUUAGUUA | 0.0502 ± 0.012
10 | UCCUGCUACAGCUUGCAUAGUAUUAAGUUA | 0.0064 ± 0.0019
11 | UCCUGGAUGUCGAACGUAAGUAUUUAGAAA | 0.000201 ± 0.036
12 | UCCUGGAUGUCGAACGUAUCUAGUUUAGUUA | < 0.0001
13 | UCCUGGUACAGCGUGCAUAGUAUUUAGUUA | 0.0121 ± 0.004
14 | UCCUGGAUCUGCUUGCAAAGUAUUUAGUUA | 0.0405 ± 0.011
15 | UCCUCCUACAACUUGCAUAGUAUUUAGUUA | 0.0806 ± 0.024
16 | UCCUGGAUCAGAUUGCAUAGUAUUUAGUUA | 0.0613 ± 0.011
17 | UCCUGGAUGAGUUUGCAUAGUAUUUAGUUA | 0.0219 ± 0.006

# Remaining list, next part

row,Sequence,pre-steady-state target cleavage rate
1,UCCUGGAUGUGCUUGCAUACAUAAAUCAAA [g12:g20:cont:t1A],0.000151 ± 0.024
2,UCCUGGAUCAGCUUGACAUAGUAUUUAGUUA,0.014 ± 0.0043
3,UCCUGGAAGAGCUUGCAAAGUAUUUAGUUA,0.018 ± 0.005
4,UCCUGGAUGUCGAACGAUACUAUAUAGUUA,0.000176 ± 0.028
5,UCCUGGAUGUGCUUGCUUAGUUUUUAGUUA,0.000317 ± 0.015
6,UCCUGGAACUGCUUGCUUAGUAUUUAGUUA,0.00646 ± 0.0033
7,UCCUGCUACAGCUUGGAUAGUAUAUAGUUA,0.0128 ± 0.0037
8,UCCUCCUUCAGCUUGCAUAGUUUUUAGUUA,0.00713 ± 0.0023
9,UCCUGCUACAGCUUGCAUUGUAUUUAGUUA,0.00662 ± 0.0024
10,UCCUGCUCAGCUUGCAUAGUAUUUAGUUA,0.065 ± 0.015
11,UCCUGGAUCAGCUUGCUUUGUAUUUAGUUA,0.00384 ± 0.0042
12,UCCUGGAACAGCUUUCAUAGUAUUUAGUUA,0.00631 ± 0.0025
13,UCCUCCUACAGCUUGGAUAGUAUUAAGUUA,0.00905 ± 0.0043
14,UCCUCCUACAGCUAGCAUAGUAUUUAGUAA,0.005 ± 0.0022
15,UCCUGGAUGUCGAAGCAGUAGUAUUUAGUUA,0.000682 ± 0.0087
16,UCCUCCUAGAGCAUGCAUAGUAUUUAGUUA,0.0163 ± 0.0058

# Same assay, conditions: auxiliary factor: none (no Gtsf1)
row,Sequence,pre-steady-state target cleavage rate
1,UCCUGGAUGUCGAACGUUAGUAUUUAGUGA,0.000304 ± 0.015
2,UCCUGGUACUGGUUGCAUAGUAUUUAGUUA,0.000873 ± 0.013
3,UCCUGGAUGUGCUUUCAUAGUAUUUAGUUA,0.0005 ± 0.017
4,UCCUGGAUGUCGAACCAUAGUAGUUUAGUUA,< 0.0001
5,UCCUGGAUGUCGAACGUAUGUAUUUAUUA,< 0.0001
6,UCCUGGUACAGGUUGCAUUGUAUUUAGUUA,0.000291 ± 0.042
7,UCCUCCAACAGCUUGCAUACUAUUUAGUUA,0.00132 ± 0.0057
